The nature of this assay: qHTS Assay for Lipid Storage Modulators in Drosophila S3 Cells.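 As to cell number change: cells counted by Cell Tracker Red CMTPX staining in the red channel.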 The note with it: BODIPY lipid droplet fluorescence, 18-24 h; for cell number change: measured here: cell count max response, cells fed with added oleic acid. The method, boiled down:
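Laser-scanning cytometry quantifies lipid droplet accumulation (500–530 nm total intensity; droplet/cell object ratio) in oleic acid-fed (400 uM added) Drosophila S3 cells treated with a concentration series. 20 uM Triacsin C defined 100% inhibition.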
(In general: Quantitative high-throughput screening tests each substance at several concentrations.)

Where [1] appears, read: measured here: lipid fluorescence (Fed channel) AC50, cells fed with added oleic acid.
Setting [2] is: measured here: cell number channel AC50, cells fed with added oleic acid.

The list shows a part of the results. Shown are side measurements of this screen, not its main read-out; they come without a call. Compounds called inactive in the main read-out are mostly missing here. Potencies come from curve fits of mixed quality, noted in brackets.

The text below walks through data of PubChem BioAssay AID2685 (National Center for Advancing Translational Sciences (NCATS), 2010).

As usually defined, the AC50 is the concentration giving half of the maximal activity seen.

As for `CCc1ccccc1NC(=O)C1CCN(C(=O)c2ccc([N+](=O)[O-])cc2)CC1`, the cell number change came out at 22.6%.

Take `COc1ccc(NC(=O)CCC(=O)Nc2ccc3nc(N4CCOCC4)cc(C)c3c2)c(OC)c1`: the cell number change is 7.94%. Besides, the AC50 under setting [1] was 0.58 µM [rising, single point].

Turning to `O=[N+]([O-])c1ccc(N2CCN(C(=S)Nc3ccc(F)cc3F)CC2)cc1`, the cell number change is -10%. Besides, the AC50 under setting [1] is 25.1 µM [falling, single point].

Consider `Nc1c(C(=O)Nc2ccccc2)sc2nc3c(c(-c4ccco4)c12)CCC3`, for which the cell number change worked out at 20.5%.

On to `COCCCn1c(C)cc(C(=O)COC(=O)C23CC4CC(CC(O)(C4)C2)C3)c1C`, for which the AC50 under setting [1] is 0.82 µM [rising, full curve, poor fit].

Take `CC(=O)Oc1c(S(=O)(=O)c2ccc(C)cc2)c(C)nn1C(C)(C)C`: the cell number change was -2.59%.

`O=S(=O)(/N=C(/Nc1ccccn1)c1ccc(Cl)cc1)c1ccc(Cl)cc1`: the cell number change was found to be 19.1%. For the same compound, the AC50 under setting [1] is 23.1 µM [falling, partial curve, poor fit].

Take `O=C(N/N=C/c1cc2c(cc1[N+](=O)[O-])OCO2)c1ccc2c(c1)OCO2`: the cell number change turned out to be 1.9%. Further, the AC50 under setting [1] is 5.17 µM [rising, partial curve].

For `O=C(O)c1cnn2c1NC(c1ccc(F)cc1)CC2C(F)(F)F` (stereo unspecified), the cell number change was -82.7%. In addition, the AC50 under setting [2] was 32.6 µM [falling, partial curve, poor fit].

Consider `O=C(c1cc(-c2ccc(Br)cc2)on1)N1CCCCCC1`, for which the cell number change is 6.25%. The concentration at half-maximal activity (AC50) under setting [1] is 0.13 µM [falling, single point].

Turning to `Cc1cc(NC(=O)C(C)SCC(=O)Nc2nnc(CC(C)C)s2)no1` (stereo unspecified), the cell number change is -35.7%. Moreover, under setting [2], the half-maximal activity concentration (AC50) is 29.1 µM [falling, single point].

On to `O=C(N/N=C1\NC(=O)C(CO)(CO)S1)c1ccccc1`, for which the cell number change came out at 5.58%. Under setting [1], the half-maximal activity concentration (AC50) is 1.64 µM [falling, partial curve].

With `CC(C)OCCCNC(=O)Cn1nc(-c2ccccc2)ccc1=O`, the cell number change was determined as 14%. Further, the AC50 under setting [1] is 13 µM [rising, partial curve, poor fit].

Take `CN(CP(=O)(O)CCc1ccccc1)S(C)(=O)=O`: the cell number change was -7.65%.

`Cn1c(-c2ccccc2)cc2onc(-c3ccccc3)c2c1=O`: the cell number change is -25.7%. Further, the AC50 under setting [1] is 0.326 µM [falling, single point].

`CC(C)c1cccc(C(C)C)c1OC(=O)[C@H]1OC(C(C)(C)C)=C[C@@H]1c1ccccc1`: the cell number change is -31.6%. Further, under setting [2], the AC50 was 7.31 µM [falling, single point].

With `COc1ccc(-c2cc(C(F)(F)F)n3nc(C(=O)NCc4ccco4)c(Cl)c3n2)cc1`, the cell number change is 5.94%. In addition, the AC50 under setting [1] is 29.1 µM [rising, single point].

With `CC1CCN(CC(=O)NC(=O)NCc2ccccc2)CC1`, the cell number change turned out to be 0.235%. Besides, the AC50 under setting [1] is 29.1 µM [falling, single point].

As to `O=C(Nc1ccc(CN2CCOCC2)cc1)c1ccc(-c2cc(Cl)ccc2Cl)o1`, the cell number change is -16.9%. Further, the concentration at half-maximal activity (AC50) under setting [1] was 20.6 µM [rising, partial curve].

Turning to `COc1ccccc1NC(=O)CSc1nnc(C)s1`, the cell number change is -3.63%.

On to `O=C(Nc1ccc(OC(F)F)cc1)Nc1cccc(C(F)(F)F)c1`, for which the cell number change was -55.4%. Also, the AC50 under setting [2] was 25.9 µM [falling, partial curve, poor fit]. For the same compound, the AC50 under setting [1] was 7.31 µM [falling, partial curve].

For `COc1cc(/C=C(/C#N)C(=O)NC(C)c2ccccc2)cc(OC)c1O` (stereo unspecified), the cell number change is 15.4%.

Turning to `CCCCCCNC(=O)c1cn(CC)c2cc(N3CCN(C)CC3)c(F)cc2c1=O`, the cell number change was -34.6%. The AC50 under setting [2] is 23.1 µM [falling, single point]. For the same compound, under setting [1], the AC50 was 20.6 µM [falling, partial curve, poor fit].

As to `Fc1ccc(-c2nnc(NC3=NCCCCC3)o2)cc1`, the cell number change is -13%. Moreover, the AC50 under setting [1] is 0.0259 µM [falling, full curve, poor fit].

Regarding `CCCCCn1cnc2c(=S)nc(N)[nH]c21`, the cell number change was -33.3%. In addition, the AC50 under setting [2] is 3.66 µM [falling, partial curve, poor fit].

As to `Cc1ccc(S(=O)(=O)NC(=NC(Cc2ccccc2)C(=O)O)c2ccccc2)cc1` (stereo unspecified), the cell number change is 31%. Under setting [2], the AC50 is 0.0651 µM [rising, full curve, poor fit].

For the compound `CCN1/C(=C/c2ccc3cccc(C)c3[n+]2CC)Sc2ccccc21`, the cell number change was -43.1%. In addition, the AC50 under setting [2] is 25.9 µM [falling, single point]. Further, under setting [1], the AC50 was 0.411 µM [falling, full curve].

On to `COc1cccc(CN(C)C(=O)c2ccc(NC(=O)CC3SC(N4CCCC4)=NC3=O)cc2)c1OC` (stereo unspecified), for which the cell number change was found to be 26.5%.

As for `OCCCc1nc2n(n1)C(c1cccs1)C=C(c1ccc(Br)cc1)N2` (stereo unspecified), the cell number change is -61.3%. Besides, under setting [2], the AC50 is 29.1 µM [falling, single point]. For the same compound, the AC50 under setting [1] was 29.1 µM [falling, single point].

Consider `O=C(O)C1C(c2ccccc2)C(C(=O)OCCCO)C1c1ccccc1` (stereo unspecified), for which the cell number change worked out at 10.5%. In addition, the AC50 under setting [1] is 3.66 µM [falling, full curve, poor fit].

On to `Cc1cc(C)n(-c2cc(-c3ccccc3)nc(C)n2)n1`, for which the cell number change was -11.7%. The AC50 under setting [1] is 4.11 µM [rising, full curve].

Take `OCCNC(=S)NCCc1ccccc1`: the cell number change is -48.4%. The half-maximal activity concentration (AC50) under setting [2] is 25.9 µM [falling, partial curve, poor fit]. In addition, the AC50 under setting [1] is 16.4 µM [falling, single point].

For the compound `CCOC(=O)CCCCC(=O)c1[nH]c(=O)[nH]c1CSc1nc(-c2ccccc2)c(C#N)c(=O)[nH]1`, the cell number change was found to be 10.6%.

As for `C=CCN1C(=O)[C@@H]2Cc3c([nH]c4ccccc34)C(c3cc(OC)c(OC)c(OC)c3)N2C1=S` (stereo partly specified), the cell number change turned out to be 249%. The half-maximal activity concentration (AC50) under setting [2] is 29.1 µM [rising, single point]. The AC50 under setting [1] is 29.1 µM [rising, single point].

For `Cc1cccc(N(CC(=O)NC2CCCCC2)C(=O)CCC(=O)Nc2ccccn2)c1`, the AC50 reads like this: under setting [2], 1.16 µM [rising, partial curve]; under setting [1], 0.731 µM [rising, full curve].

`CC/C(=N\NC(=O)c1ccc2c(c1)OCO2)c1ccccc1`: the cell number change was 31.2%. Further, the AC50 under setting [2] was 7.31 µM [rising, full curve, poor fit]. Further, under setting [1], the concentration at half-maximal activity (AC50) is 29.1 µM [rising, single point].

Take `COc1ccccc1Cn1c(=S)[nH]c2cc(C(=O)NCCCN3CCOCC3)ccc2c1=O`: the cell number change is -19.1%.

`CC(C(=O)NCc1ccco1)n1cc(C(=O)c2ccco2)c2ccccc21` (stereo unspecified): the cell number change is -9.39%. Besides, the AC50 under setting [1] is 25.9 µM [rising, single point].

As for `CCNC(=S)N/N=C/c1cn(Cc2ccccc2F)c2ccccc12`, the cell number change was -30.7%. Moreover, the AC50 under setting [1] was 25.9 µM [falling, single point].

As for `S=c1[nH]nc(-c2ccccc2)n1/N=C/c1ccc(-c2ccccc2Cl)o1`, the cell number change was -54.8%. For the same compound, the AC50 under setting [2] was 29.1 µM [falling, single point]. In addition, under setting [1], the AC50 was 2.31 µM [rising, partial curve].

In the case of `CCCCOC(=O)n1c(=O)oc2cc(S(=O)(=O)N3CCCCC3)ccc21`, the cell number change is -133%. For the same compound, under setting [2], the AC50 is 25.9 µM [falling, partial curve]. Under setting [1], the AC50 was 1.03 µM [falling, full curve].

In the case of `COC(=O)Cc1[nH]nc2c1C1(C(=O)N(Cc3ccc(Cl)cc3)c3ccccc31)C(C#N)=C(N)O2` (stereo unspecified), the cell number change is 2.57%. The AC50 under setting [1] is 4.11 µM [rising, single point].

Turning to `CCc1ccc(NC(=O)[C@H](C)NC(=O)C2CCN(C(=O)[C@@H](N)CC(C)C)CC2)cc1`, the cell number change amounted to 14.2%. For the same compound, the AC50 under setting [1] was 8.2 µM [rising, partial curve].

`O/N=C/Cc1[nH]c2ccccc2c1-c1ccccc1`: the cell number change was -33.9%. Moreover, the AC50 under setting [2] is 16.4 µM [falling, single point]. Moreover, the AC50 under setting [1] was 29.1 µM [falling, single point].

For the compound `O=C(COC(=O)CCC(=O)c1ccccc1)Nc1nnc(-c2ccccc2)o1`, the cell number change was -17.8%. Moreover, under setting [1], the AC50 was 0.103 µM [falling, full curve, poor fit].

`CCn1c(Nc2ccccc2Cl)nc2ccccc21`: the AC50 under setting [1] is 0.461 µM [rising, partial curve, poor fit].

On to `CN(Cc1ccccc1)C(=O)CCC1CCN(C(=O)CC2=CCCCC2)CC1`, for which the AC50 under setting [1] was 6.51 µM [rising, single point].

For the compound `CC1(C)Cc2cccc(Oc3ccc(S(=O)(=O)N4CCCCC4)cn3)c2O1`, the cell number change was -0.622%. Besides, the AC50 under setting [2] is 6.51 µM [falling, single point].

On to `COc1ccccc1NC(=O)CSc1nnc(CNC(=O)c2ccccc2F)o1`, for which the cell number change was determined as 18.4%.

As to `Cc1cccc(C)c1NC(=O)CN(C)C(=O)Cc1cccc(C(F)(F)F)c1`, the cell number change was 6.67%. Besides, the AC50 under setting [1] was 0.411 µM [rising, partial curve].

Consider `Cc1ccn(-c2cccc(-n3ccc(C)n3)n2)n1`, for which the cell number change worked out at 5.36%. The AC50 under setting [1] was 25.9 µM [rising, single point].

`CC(C)N1CCN(Cc2ccc(Sc3nncn3C)o2)CC1CCO` (stereo unspecified): the cell number change was -42.9%. In addition, under setting [2], the AC50 was 0.291 µM [falling, full curve, poor fit]. Also, under setting [1], the AC50 is 29.1 µM [falling, single point].

In the case of `CSc1cccc(CN2CCC(Oc3cccc(C(=O)N4CCCC4)c3)CC2)c1`, the cell number change is -23.3%. For the same compound, the AC50 under setting [1] was 29.1 µM [rising, single point].

As to `COc1ccccc1NS(=O)(=O)c1cc(C)ccc1C`, the cell number change turned out to be 37.6%. For the same compound, the concentration at half-maximal activity (AC50) under setting [2] was 4.61 µM [rising, partial curve].

As to `COc1ccc(/C=C/C(=O)Nc2nc(C)cc(C)n2)cc1OC`, the cell number change stood at 2.76%.

On to `COc1ccccc1C(=O)NCC1CCN(c2ccc(S(=O)(=O)N3CCOCC3)cc2)CC1`, for which the cell number change stood at 289%. The AC50 under setting [2] was 8.2 µM [rising, partial curve]. Under setting [1], the AC50 was 2.31 µM [rising, partial curve].

For `O=C(NNS(=O)(=O)c1ccc2ccccc2c1)NC1CCCCC1`, the cell number change was 30%.

`COC(=O)Cc1ccc(NC(=O)c2ccc3c(c2)C(=O)N(CC2CCCO2)C3=O)cc1` (stereo unspecified): the cell number change is -39.5%. Besides, under setting [2], the AC50 is 13 µM [falling, partial curve, poor fit]. For the same compound, under setting [1], the AC50 is 11.6 µM [falling, partial curve].

For `CCOc1ccc(S(=O)(=O)NCc2ccco2)cc1`, the cell number change is -3.95%. In addition, the AC50 under setting [1] is 0.731 µM [falling, full curve].
